Results: patent publication US10563263B2, “Genetic polymorphisms associated with statin response and cardiovascular diseases, methods of detection and uses thereof” (CELERA CORPORATION, priority 2010, dated 2020)
The source gives many values for each of these; only a part stands here.

System: revascularization, unstable angina requiring hospitalization, MI, all causes of death, or stroke
Experiment: PROVE IT-TIMI 22: SNP by treatment interaction (high-dose atorvastatin vs standard-dose pravastatin), logistic regression (synergy index), primary composite endpoint
Assay type: in vivo, human

CC(C)c1c(C(=O)Nc2ccccc2)c(-c2ccccc2)c(-c2ccc(F)cc2)n1CC[C@@H](O)C[C@@H](O)CC(=O)O [Atorvastatin, atorvastatin]
OR (rs3847825 allele G, ADD, Imputed, atorvastatin vs pravastatin): 0.7616
OR (rs3852001 allele C, REC, Genotyped, atorvastatin vs pravastatin): 1.348
OR (rs3852002 allele G, REC, Imputed, atorvastatin vs pravastatin): 1.348
OR (rs3852003 allele A, REC, Imputed, atorvastatin vs pravastatin): 1.351
OR (rs3942254 allele T, DOM, Imputed, atorvastatin vs pravastatin): 0.6591
OR (rs3945085 allele A, DOM, Imputed, atorvastatin vs pravastatin): 1.324
OR (rs4029119 allele G, ADD, Imputed, atorvastatin vs pravastatin): 0.9741
OR (rs4029119 allele G, DOM, Imputed, atorvastatin vs pravastatin): 1.136
OR (rs4146972 allele T, DOM, Genotyped, atorvastatin vs pravastatin): 1.832
OR (rs4259369 allele C, REC, Imputed, atorvastatin vs pravastatin): 0.659
OR (rs4273613 allele T, ADD, Imputed, atorvastatin vs pravastatin): 0.9741
OR (rs4273613 allele T, DOM, Imputed, atorvastatin vs pravastatin): 1.136
OR (rs4294022 allele C, DOM, Imputed, atorvastatin vs pravastatin): 1.051
OR (rs4310554 allele C, DOM, Genotyped, atorvastatin vs pravastatin): 1.561
OR (rs4315598 allele T, ADD, Imputed, atorvastatin vs pravastatin): 1.389
OR (rs4370878 allele G, DOM, Imputed, atorvastatin vs pravastatin): 1.312
OR (rs4436200 allele C, ADD, Imputed, atorvastatin vs pravastatin): 0.543
OR (rs4444612 allele G, ADD, Imputed, atorvastatin vs pravastatin): 1.389
OR (rs4463950 allele C, DOM, Imputed, atorvastatin vs pravastatin): 0.7997
OR (rs4509702 allele C, DOM, Imputed, atorvastatin vs pravastatin): 1.312
OR (rs4533379 allele G, ADD, Imputed, atorvastatin vs pravastatin): 1.075
OR (rs4569984 allele A, DOM, Imputed, atorvastatin vs pravastatin): 1.031
OR (rs4570530 allele C, DOM, Imputed, atorvastatin vs pravastatin): 1.312
OR (rs4571583 allele T, DOM, Imputed, atorvastatin vs pravastatin): 1.001
OR (rs4615971 allele C, DOM, Imputed, atorvastatin vs pravastatin): 1.347
OR (rs4629229 allele G, DOM, Imputed, atorvastatin vs pravastatin): 1.138
OR (rs4641552 allele A, ADD, Imputed, atorvastatin vs pravastatin): 0.6214
OR (rs4682527 allele C, DOM, Imputed, atorvastatin vs pravastatin): 2.955
OR (rs4688632 allele G, REC, Imputed, atorvastatin vs pravastatin): 0.6822
OR (rs4702720 allele A, ADD, Imputed, atorvastatin vs pravastatin): 0.757
OR (rs4702720 allele A, DOM, Imputed, atorvastatin vs pravastatin): 0.6462
OR (rs4714484 allele A, ADD, Imputed, atorvastatin vs pravastatin): 0.8396
OR (rs4714484 allele A, DOM, Imputed, atorvastatin vs pravastatin): 0.8278
OR (rs4725142 allele G, REC, Genotyped, atorvastatin vs pravastatin): 1.186
OR (rs4725144 allele G, REC, Imputed, atorvastatin vs pravastatin): 1.136
OR (rs4760785 allele A, ADD, Imputed, atorvastatin vs pravastatin): 0.7137
OR (rs4760785 allele A, DOM, Imputed, atorvastatin vs pravastatin): 0.7026
OR (rs4760894 allele T, ADD, Imputed, atorvastatin vs pravastatin): 0.7137
OR (rs4760894 allele T, DOM, Imputed, atorvastatin vs pravastatin): 0.7026
OR (rs4760895 allele A, ADD, Imputed, atorvastatin vs pravastatin): 0.7137
OR (rs4760895 allele A, DOM, Imputed, atorvastatin vs pravastatin): 0.7026
OR (rs4767184 allele C, ADD, Imputed, atorvastatin vs pravastatin): 0.7759
OR (rs4773487 allele T, ADD, Imputed, atorvastatin vs pravastatin): 1.73
OR (rs4780547 allele G, REC, Imputed, atorvastatin vs pravastatin): 0.2881
OR (rs4836502 allele T, DOM, Imputed, atorvastatin vs pravastatin): 0.5934
OR (rs4836507 allele C, DOM, Imputed, atorvastatin vs pravastatin): 0.5803
OR (rs4851531 allele T, DOM, Imputed, atorvastatin vs pravastatin): 0.6071
OR (rs4879931 allele G, ADD, Imputed, atorvastatin vs pravastatin): 0.7451
OR (rs4976276 allele T, ADD, Imputed, atorvastatin vs pravastatin): 0.9836
OR (rs4977681 allele C, REC, Imputed, atorvastatin vs pravastatin): 0.9851
OR (rs4986197 allele G, ADD, Imputed, atorvastatin vs pravastatin): 1.083
OR (rs4986220 allele T, ADD, Imputed, atorvastatin vs pravastatin): 1.075
OR (rs5756669 allele C, DOM, Imputed, atorvastatin vs pravastatin): 1.061
OR (rs6033138 allele C, ADD, Imputed, atorvastatin vs pravastatin): 1.389
OR (rs6040619 allele C, ADD, Imputed, atorvastatin vs pravastatin): 1.429
OR (rs6040625 allele T, ADD, Imputed, atorvastatin vs pravastatin): 1.414
OR (rs6040630 allele A, ADD, Imputed, atorvastatin vs pravastatin): 1.401
OR (rs6040633 allele A, ADD, Imputed, atorvastatin vs pravastatin): 1.391
OR (rs6040634 allele T, ADD, Imputed, atorvastatin vs pravastatin): 1.404
OR (rs6040638 allele C model ADD Imputed, ATORVA vs PRAVA): 1.389
OR (rs6040644 allele A model ADD Imputed, ATORVA vs PRAVA): 1.389
OR (rs6040667 allele T model ADD Imputed, ATORVA vs PRAVA): 1.422
OR (rs6040668 allele C model ADD Imputed, ATORVA vs PRAVA): 1.398
OR (rs6053005 allele C model DOM Imputed, ATORVA vs PRAVA): 0.4506
OR (rs6054405 allele A model REC Imputed, ATORVA vs PRAVA): 0.9755
OR (rs6075186 allele G model DOM Imputed, ATORVA vs PRAVA): 1.138
OR (rs6111540 allele A model ADD Imputed, ATORVA vs PRAVA): 0.9692
OR (rs6131206 allele C model ADD Imputed, ATORVA vs PRAVA): 1.493
OR (rs6131208 allele T model ADD Imputed, ATORVA vs PRAVA): 1.387
OR (rs6131919 allele G model DOM Imputed, ATORVA vs PRAVA): 1.138
OR (rs6134243 allele C model ADD Imputed, ATORVA vs PRAVA): 1.389
OR (rs6136020 allele A model DOM Imputed, ATORVA vs PRAVA): 1.061
OR (rs6464377 allele C model DOM Imputed, ATORVA vs PRAVA): 1.043
OR (rs6476565 allele A model DOM Imputed, ATORVA vs PRAVA): 1.184
OR (rs6511286 allele T model ADD Imputed, ATORVA vs PRAVA): 1.099
OR (rs6541829 allele C model REC Genotyped, ATORVA vs PRAVA): 2.003
OR (rs6544728 allele T model DOM Imputed, ATORVA vs PRAVA): 1.333
OR (rs6565910 allele G model DOM Imputed, ATORVA vs PRAVA): 1.047
OR (rs6581985 allele G model REC Imputed, ATORVA vs PRAVA): 2.451
OR (rs6685186 allele T model ADD Imputed, ATORVA vs PRAVA): 1.015
OR (rs6722640 allele T model DOM Imputed, ATORVA vs PRAVA): 0.5987
OR (rs6746170 allele A model DOM Imputed, ATORVA vs PRAVA): 1.346
OR (rs6805139 allele G model DOM Imputed, ATORVA vs PRAVA): 1.417
OR (rs6808571 allele G model ADD Imputed, ATORVA vs PRAVA): 1.138
OR (rs6816479 allele A model REC Imputed, ATORVA vs PRAVA): 0.7905
OR (rs6865976 allele C model DOM Imputed, ATORVA vs PRAVA): 1.085
OR (rs6871041 allele G model DOM Imputed, ATORVA vs PRAVA): 0.6503
OR (rs6908481 allele C model REC Imputed, ATORVA vs PRAVA): 1.391
OR (rs6917224 allele A model ADD Imputed, ATORVA vs PRAVA): 0.959
OR (rs6920677 allele G model DOM Imputed, ATORVA vs PRAVA): 0.9579
OR (rs6998772 allele T model DOM Imputed, ATORVA vs PRAVA): 1.182
OR (rs7022281 allele C model ADD Imputed, ATORVA vs PRAVA): 0.6915
OR (rs7022281 allele C model REC Imputed, ATORVA vs PRAVA): 0.386
OR (rs7043983 allele T model DOM Imputed, ATORVA vs PRAVA): 1.147
OR (rs7077799 allele A model DOM Imputed, ATORVA vs PRAVA): 1.347
OR (rs7088947 allele A model ADD Imputed, ATORVA vs PRAVA): 0.5704
OR (rs7089661 allele C model DOM Imputed, ATORVA vs PRAVA): 1.347
OR (rs7102072 allele A model DOM Imputed, ATORVA vs PRAVA): 0.9567
OR (rs7129817 allele T model ADD Imputed, ATORVA vs PRAVA): 0.9401
OR (rs7134262 allele T model REC Imputed, ATORVA vs PRAVA): 1.986
OR (rs7138300 allele C model ADD Imputed, ATORVA vs PRAVA): 0.7137
OR (rs7138300 allele C model DOM Imputed, ATORVA vs PRAVA): 0.7026
OR (rs7295817 allele C model ADD Imputed, ATORVA vs PRAVA): 0.727
OR (rs7295817 allele C model REC Imputed, ATORVA vs PRAVA): 0.4929
OR (rs7297372 allele A model ADD Imputed, ATORVA vs PRAVA): 0.7305
OR (rs7298255 allele A model ADD Imputed, ATORVA vs PRAVA): 0.7433
OR (rs7298255 allele A model DOM Imputed, ATORVA vs PRAVA): 0.74
OR (rs7305832 allele C model REC Imputed, ATORVA vs PRAVA): 2.008
OR (rs7446891 allele G model DOM Imputed, ATORVA vs PRAVA): 0.5934
OR (rs7448641 allele C model ADD Imputed, ATORVA vs PRAVA): 0.9741
OR (rs7448641 allele C model DOM Imputed, ATORVA vs PRAVA): 1.136
OR (rs7460605 allele G model DOM Imputed, ATORVA vs PRAVA): 1.481
OR (rs7501186 allele A model DOM Imputed, ATORVA vs PRAVA): 2.011
OR (rs7557560 allele T model REC Imputed, ATORVA vs PRAVA): 1.621
OR (rs7562462 allele T model DOM Imputed, ATORVA vs PRAVA): 0.6891
OR (rs7607447 allele T model REC Imputed, ATORVA vs PRAVA): 2.337
OR (rs7648163 allele C model REC Imputed, ATORVA vs PRAVA): 0.941
OR (rs7653190 allele C model ADD Imputed, ATORVA vs PRAVA): 0.9859
OR (rs7653685 allele C model DOM Genotyped, ATORVA vs PRAVA): 0.8286
OR (rs7684899 allele C model DOM Imputed, ATORVA vs PRAVA): 0.5176
OR (rs7701604 allele G model ADD Imputed, ATORVA vs PRAVA): 0.9741
OR (rs7701604 allele G model DOM Imputed, ATORVA vs PRAVA): 1.136
OR (rs7703676 allele C model ADD Imputed, ATORVA vs PRAVA): 0.9741
OR (rs7703676 allele C model DOM Imputed, ATORVA vs PRAVA): 1.136
OR (rs7711358 allele A model DOM Imputed, ATORVA vs PRAVA): 0.593
OR (rs7737608 allele G model DOM Imputed, ATORVA vs PRAVA): 0.7496
OR (rs7762993 allele A model ADD Imputed, ATORVA vs PRAVA): 1.066
